This is one part of the list. These are further read-outs of the screen, such as a control signal, another cell line or another target. No call is given for them. Most of these compounds were active or inconclusive in the main read-out, so they are no random draw. Words in brackets tell the shape of the fitted curve; partial curves, single points and poor fits give uncertain potencies.

This assay is described as follows: Cell signaling CRE-BLA (Fsk stim). The conditions noted are these: CHO CRE-bla reporter (cAMP response element driving beta-lactamase), forskolin EC10, beta-lactamase ratio; measured here: 460 nm blue channel. The procedure, abridged:
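Cells were plated overnight at 37 °C, exposed to compound titrations plus EC10 NKH 477 for 3 h, then given CCF4 dye for 2 h at room temperature. Blue/green (460/530 nm) ratio was converted to %Activity and AC50 values calculated.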
For `COc1ccccc1NC(=O)Cn1nnc(-c2ccccc2NC(=O)c2cccs2)n1`, the AC50 (usually the concentration at which the activity in the assay is half-maximal) was 2.51 µM [rising, full curve, poor fit]. As to `Cc1nnc(SCC(=O)Nn2cnnc2)s1`, the AC50 is 25.1 µM [rising, single point]. In the case of `Cc1nc(C)c(C(=O)Nc2ccc(C)c(F)c2)o1`, the AC50 was 5.01 µM [falling, full curve]. With `CCNc1ncc2nc(C)c(=O)n(-c3ccc(OC)cc3)c2n1`, the AC50 is 15.8 µM [rising, partial curve]. For `O=C(Nc1ccccc1C(=O)N1CCCCCC1)c1cccc(S(=O)(=O)N2CCOCC2)c1`, the AC50 is 3.98 µM [falling, partial curve]. Regarding `Cn1c(=O)[nH]c(=O)c2c1nc(Br)n2CCCCSc1nc2ccccc2o1`, the AC50 was 10 µM [rising, partial curve]. Regarding `Clc1ccc(N2CCN(Cc3c[nH]c4ncccc34)CC2)cc1`, the AC50 was 12.6 µM [falling, partial curve, poor fit].

With `CCCCn1ccnc1C(=O)c1cccc(S(=O)(=O)N2c3ccccc3CC2C)c1` (configuration not stated), the AC50 is 5.01 µM [rising, single point]. Consider `Cc1cccc(N(C)C(=O)c2cc3cc4ccc(C)cc4nc3o2)c1`, for which the AC50 is 0.1 µM [rising, full curve]. Turning to `Cc1ccc(C)c(Cn2c(=O)c3c(nc4n3CCN4Cc3ccco3)n(C)c2=O)c1`, the AC50 was 3.16 µM [rising, partial curve]. Consider `CC(=O)N(Cc1cccnc1)Cc1cc2ccccc2[nH]c1=O`, for which the AC50 is 25.1 µM [rising, single point].

In the case of `Cc1ccc(S(=O)(=O)N2CCC(C(=O)N[C@@H](Cc3ccccc3)C(=O)O)CC2)cc1`, the AC50 is 0.0794 µM [falling, full curve].

In the case of `CC(=O)NCCNc1ncnc2ccc(-c3ccccc3C)cc12`, the AC50 was 0.398 µM [rising, full curve].

In the case of `CCN(CC)S(=O)(=O)c1ccc(NCc2ccccc2)nc1`, the AC50 was 2.51 µM [rising, full curve].

As for `CN(C)c1ccc(C(=C2C=CC(=[N+](C)C)C=C2)c2ccc(N(C)C)cc2)cc1`, the AC50 was 3.16 µM [falling, full curve]. Consider `O=C(Cn1cnc2ccccc2c1=O)c1c[nH]c2ccccc12`, for which the AC50 was 25.1 µM [rising, single point]. On to `COc1cccc(C(=O)Nc2ccc(N(C)C)cc2)c1OC`, for which the AC50 is 5.01 µM [rising, partial curve]. In the case of `Clc1ccc(-c2ccc(-c3nn4c(-c5ccco5)nnc4s3)o2)cc1` it was 10 µM [rising, single point]; in that of `O=C(CSc1nnc2c(Cl)cc(C(F)(F)F)cn12)Nc1ccc2c(c1)OCO2`, 0.251 µM [falling, partial curve]. For the molecule `O=C1c2ccccc2C(=O)N1Cc1nc(-c2ccccc2)no1`, the AC50 is 0.794 µM [rising, single point]. As for `COc1ccc(-c2nc3cnc(N4CCNCC4)nc3n(Cc3ccc(F)cc3)c2=O)cc1`, the AC50 is 10 µM [rising, partial curve].

With `Cc1ccc2cc(CCNC(=O)CC(C)C)c(=O)[nH]c2c1`, the AC50 was 6.31 µM [rising, partial curve]. As to `Cc1cccc(-n2nc3c(c2NC(=O)c2ccco2)CSC3)c1C`, the AC50 is 25.1 µM [falling, single point]. In the case of `Cc1ccc(CNC(=O)c2cn(C3CCCC3)c(=O)c3c2c2ccccc2n3C)o1`, the AC50 is 0.316 µM [falling, partial curve]. On to `CCOC(=O)c1c(C)n(C)c2cc(OCCN(CC)CC)ccc12`, for which the AC50 was 12.6 µM [rising, single point]. For `CC1(C)Oc2ccc3ccc(=O)oc3c2/C(=C/Nc2ccccn2)C1=O`, the AC50 is 12.6 µM [rising, partial curve, poor fit].

With `CCN(CC)c1ccc2cc(C(=O)Nc3cccnc3N3CCOCC3)c(=O)oc2c1`, the AC50 was 10 µM [rising, partial curve].

On to `N#Cc1cccc(-c2nc3cnc(N4CCOCC4)nc3n(C3CC3)c2=O)c1`, for which the AC50 is 1.58 µM [rising, full curve]. Regarding `Fc1ccc(-c2nnc3ccc(N4CCc5ccccc5C4)nn23)cc1`, the AC50 was 12.6 µM [rising, partial curve].

As for `Cc1nc(SC2CC(=O)N(c3ccccc3)C2=O)nc2c1CCCC2` (configuration not stated), the AC50 is 12.6 µM [rising, single point]. As for `c1ccc(Nc2ncnc3ccc(-c4cccnc4)cc23)cc1`, the AC50 was 10 µM [rising, partial curve]. With `O=C(c1ccc(NS(=O)(=O)c2cccc3cccnc23)cc1)N1CCOCC1`, the AC50 is 10 µM [rising, single point]. With `Cc1cc2cc(CCNC(=O)CC(C)C)c(=O)[nH]c2cc1C`, the AC50 is 12.6 µM [rising, partial curve]. The value for `Cn1c(=O)c2c(nc(SCc3ccccn3)n2C)n(C)c1=O` was 5.01 µM [falling, single point]; that for `CCC(C)n1cnc2c(c1=O)c1nc3ccccc3nc1n2-c1ccc2c(c1)OCCO2` (configuration not stated) was 7.94 µM [rising, partial curve]; that for `Cc1cc(NC(=O)c2ccc(S(=O)(=O)N3CCOCC3)cc2)nc2c1c(=O)oc1ccccc12` was 10 µM [rising, partial curve].

`CC1=CCC(C(C)(C)NC(=O)c2ccccc2)C/C1=N\O` (configuration not stated): the AC50 is 0.316 µM [rising, partial curve]. On to `O=C(CSc1nnc(-c2ccco2)n1Cc1ccccc1)OC1CCCCC1`, for which the AC50 is 20 µM [rising, single point]. Take `Cc1cccc(-c2cc3nc4c(c(N5CCC6(CC5)OCCO6)n3n2)CCCC4)c1`: the AC50 was 1.26 µM [rising, full curve, poor fit]. For `COCCN(CCOC)c1nc(C)nc2c1nc(-c1ccccc1)n2CCN1CCOCC1`, the AC50 is 10 µM [rising, partial curve].

With `O=C1C2C3C=CC(CO)(O3)C2C(=O)N1c1ccc(-c2ccccc2)cc1` (configuration not stated), the half-maximal activity concentration (AC50) was 25.1 µM [falling, single point]. Regarding `Cc1cc(C)n2nc(SCC(=O)NCc3ccco3)nc2n1`, the AC50 is 0.00316 µM [rising, full curve, poor fit].

For `O=C(NCC12CC3CC(CC(C3)C1)C2)c1cc2n(n1)C(C(F)(F)F)CC(c1ccco1)N2` (configuration not stated), the AC50 was 12.6 µM [rising, single point]. On to `Cn1nc(-c2ccc(Cl)cc2)c2cc(C(=O)NCCCN3CCCC3)sc21`, for which the AC50 was 12.6 µM [rising, partial curve]. Turning to `CCn1c2ccccc2c2cc(NC(=O)CSc3nnc(-c4ccccc4OC)n3N)ccc21`, the AC50 was 3.98 µM [falling, partial curve]. Regarding `CC1(C)CC(=O)C=C(Nc2ccccn2)C1`, the concentration at half-maximal activity (AC50) is 25.1 µM [falling, single point].

Take `COc1ccc(OC)c(C(=O)c2coc3ccc(O)c(CN4CCOCC4)c23)c1`: the AC50 is 3.16 µM [rising, single point]. Consider `COc1ccc(-c2nnc(SCC#CCO)o2)cc1OC`, for which the AC50 was 1 µM [rising, full curve]. Take `Cc1ccc(NCN2C(=O)C3C4C=CC(C4)C3C2=O)cc1` (configuration not stated): the AC50 is 0.631 µM [falling, full curve, poor fit]. Take `O=C(NCCc1ccccc1)C1CCN(S(=O)(=O)N2CCC3(CC2)OCCO3)CC1`: the AC50 was 0.1 µM [falling, full curve, poor fit]. For the molecule `c1cnc(N2CCN(c3nc4ccccc4n4cnnc34)CC2)nc1`, the AC50 is 2 µM [rising, full curve]. Consider `Cc1ccc(NC(=O)CN(C)S(=O)(=O)c2cccc3nsnc23)cc1`, for which the AC50 was 0.398 µM [falling, partial curve]. In the case of `N#Cc1c(N)c(C(=O)c2ccccc2)n2c1CCCC2` it was 0.501 µM [falling, single point]. The value for `CSc1nc2sc3c(c2c(=O)n1C)CCCC3` was 10 µM [rising, partial curve]; that for `CCOC(=O)c1ccc(N2C(=O)c3n[nH]c(C)c3C2c2ccc(OC)c(OC)c2)cc1` (configuration not stated) was 12.6 µM [rising, single point]; that for `NC(=O)NC(c1ccccc1)c1ccccc1F` (configuration not stated) was 0.02 µM [rising, single point].

With `CCOc1cc2c(cc1OCC)C(C(=O)O)C(c1ccc(OC)c(O)c1)N(C)C2=O` (configuration not stated), the AC50 was 3.16 µM [falling, full curve, poor fit].

For the molecule `O=C(O)c1cccc(S(=O)(=O)Nc2ccccc2Cl)c1`, the AC50 is 0.0501 µM [falling, full curve, poor fit]. For the molecule `FC(F)(F)c1nnc2ccc(N3CCOCC3)nn12`, the AC50 is 10 µM [falling, partial curve]. For the molecule `CN1CCN(CC(=O)N(Cc2c(C#N)c3ccccc3n2C)c2ccccc2)CC1`, the AC50 is 25.1 µM [rising, single point].

As for `Cc1cccc(OCCCC(=O)Nc2ccc3c(c2)OCO3)c1`, the AC50 was 0.00398 µM [falling, full curve]. Turning to `CCOC(=O)C1CN(S(=O)(=O)c2ccc(C)cc2)CCN1S(=O)(=O)c1ccc(C)cc1` (configuration not stated), the AC50 is 0.631 µM [rising, full curve, poor fit]. The value for `COc1ccc(OC)c2[nH]c(=O)c(CCNS(=O)(=O)c3ccccc3)cc12` was 1 µM [rising, partial curve]; that for `COC(=O)c1ccc(CSc2nc3ccccc3o2)cc1` was 0.00398 µM [falling, full curve, poor fit]. Consider `Cc1cc(-n2c(C)cc(C(=O)CSc3ccc4c(c3)OCCO4)c2C)no1`, for which the AC50 is 25.1 µM [falling, single point]. On to `Cc1oc(-c2cccc(Cl)c2)nc1CN1CCC(C(=O)NCc2ccco2)CC1`, for which the AC50 is 5.01 µM [falling, partial curve].

Turning to `O=c1[nH]c2c(s1)C(c1ccccc1)C1C3CCC(C3)C1S2` (configuration not stated), the AC50 is 10 µM [rising, partial curve].

Source of the values: PubChem BioAssay AID662 (National Center for Advancing Translational Sciences (NCATS), 2007).
